# Experimental data: PubChem BioAssay AID1671190 (National Center for Advancing Translational Sciences (NCATS), 2021)
# Sequences of proteins named here, by UniProt entry; tags and fusion partners are left off.
# UniProt P18054, whole entry, looked up: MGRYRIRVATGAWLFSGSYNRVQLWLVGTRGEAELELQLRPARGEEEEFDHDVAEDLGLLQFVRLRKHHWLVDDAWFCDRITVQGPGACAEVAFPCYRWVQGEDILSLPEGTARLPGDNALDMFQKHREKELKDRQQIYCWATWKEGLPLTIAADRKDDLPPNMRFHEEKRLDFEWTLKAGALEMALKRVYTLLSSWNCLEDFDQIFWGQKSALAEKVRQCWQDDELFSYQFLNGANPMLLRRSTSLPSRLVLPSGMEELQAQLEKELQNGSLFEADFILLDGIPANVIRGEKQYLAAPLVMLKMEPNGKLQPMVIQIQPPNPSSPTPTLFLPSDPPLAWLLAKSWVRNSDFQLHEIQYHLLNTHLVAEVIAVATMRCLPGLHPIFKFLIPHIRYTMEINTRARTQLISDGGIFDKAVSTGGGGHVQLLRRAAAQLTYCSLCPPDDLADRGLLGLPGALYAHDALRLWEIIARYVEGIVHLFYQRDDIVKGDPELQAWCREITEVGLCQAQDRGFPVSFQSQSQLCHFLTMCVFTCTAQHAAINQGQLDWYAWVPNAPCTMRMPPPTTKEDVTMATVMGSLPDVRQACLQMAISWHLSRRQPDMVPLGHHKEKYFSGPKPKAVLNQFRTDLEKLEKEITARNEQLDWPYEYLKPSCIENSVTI
# The campaign covered roughly 580,000 compounds. About 6,100 (1.1%) were called active. Inconclusive means that the source gave no clear call. Such entries were picked first, then a sample of the others. The call rests on the fitted dose curve; in most records, active means well fitted inhibition curve with a large enough effect; inconclusive means small, poorly fitted or top-dose-only effect, or another doubt; inactive means no such curve, though single readings can be large or run the other way. Potencies of inconclusive entries are doubtful fits and often do not repeat.
# Biological target: Polyunsaturated fatty acid lipoxygenase ALOX12 (Homo sapiens) (UniProt P18054)
# Test: Primary qHTS assay for inhibitors of human arachidonate 12S-lipoxygenase (ALOX12): Round 2
# Conditions: purified 12hLO, xylenol orange hydroperoxide absorbance; series mostly up to 108 µM
# Procedure, shortened: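 Purified human 12hLO at 150 nM in 25 mM Hepes, 0.01% Triton X-100, pH 7.0, preincubated 15 min at room temperature with compound. Reaction started with 40 uM arachidonic acid, 30 min at room temperature. Hydroperoxide measured by Fe-xylenol orange, 573/405 nm absorbance ratio.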
# Potency means the concentration at half of the fitted maximal effect.
row,SMILES,Potency
1,O=S(=O)(Oc1ccc(Cl)cc1)c1cccc2cccnc12,"inconclusive: 158 µM [inhibitor, single point]"
2,CC(=O)c1ccccc1-c1ccc2c(c1)CC(CNC(=O)C[C@@H]1C[C@@H](C)NC(=S)N1)O2 (stereo not given in full),"inconclusive: 79.4 µM [inhibitor, partial curve, poor fit]"
3,N[C@H](C(=O)O)[C@@H]1[C@@H](C(=O)O)C1(F)F,"inconclusive: 0.794 µM [inhibitor, full curve, poor fit]"
4,Cc1ccc(-n2c(-c3cc(-c4ccco4)[nH]n3)n[nH]c2=S)c(Br)c1,"inconclusive: 100 µM [inhibitor, partial curve, poor fit]"
5,CCC(CO)NS(=O)(=O)c1ccc(Cl)c(Cl)c1Cl (stereo not given),"inconclusive: 89.1 µM [inhibitor, single point]"
6,Cc1ccc(S(=O)(=O)NC(=O)c2cc(C)n(-c3cc(S(=O)(=O)N4CCOCC4)ccc3N3CCCC3)c2C)cc1,"inconclusive: 50.1 µM [inhibitor, partial curve, poor fit]"
7,O=c1c2c(-c3cccs3)csc2ncn1/N=C/c1ccc(OC(F)F)cc1,inactive
8,COc1ccccc1N1CCN([C@@H]2[C@H](O)[C@H](CO)O[C@@H]2CNC(=O)Nc2ccccc2)CC1,"inconclusive: 12.6 µM [inhibitor, full curve, poor fit]"
9,S=C(c1ccc(-c2ccc(Br)cc2)o1)N1CCOCC1,"inconclusive: 28.2 µM [inhibitor, partial curve, poor fit]"
10,Brc1ccc(-c2nc3ccc(Br)cn3c2Cc2ccccc2)cc1,"inconclusive: 70.8 µM [inhibitor, partial curve, poor fit]"
11,N#C/C(=C(/O)Cc1ccccc1)P(=O)(c1ccccc1)c1ccccc1,"inconclusive: 100 µM [inhibitor, single point]"
12,CC(C)N(Cc1ccccc1)C(=O)CN1C(=O)CSc2ccc(S(=O)(=O)N3CCCC3)cc21,inactive
13,CCOc1ccc(CCNC(=O)CCn2ccc3cc(S(=O)(=O)N4CCCC4)ccc32)cc1,inactive
14,CS(=O)(=O)c1ccc(C(=O)Nc2nc(-c3ccco3)c(-c3ccco3)s2)cc1,"inconclusive: 50.1 µM [inhibitor, partial curve, poor fit]"
15,Cc1ccc2nc(C3CCCCC3)c(Cc3ccsc3)n2c1,"inconclusive: 35.5 µM [inhibitor, single point]"
16,Cc1cc(C(=O)NC(C)C2CC2)c(Cl)cc1Cl (stereo not given),"inconclusive: 126 µM [inhibitor, single point]"
17,CCC1CCc2c(sc(N)c2C(N)=O)C1 (stereo not given),"inconclusive: 39.8 µM [inhibitor, partial curve, poor fit]"
18,COc1cc2c(cc1OC)C(C1(O)CCCCC1)NCC2 (stereo not given),inactive
19,C=CCNC(=O)N[C@H]1CCN2C(=O)c3cc(-c4ccccc4F)ccc3NC(=O)[C@@H]2C1,"inconclusive: 6.31 µM [inhibitor, full curve, poor fit]"
20,CCCCOCCCNC(=O)Cn1cnc2c1c(=O)n(C)c(=O)n2C,inactive
21,CC(C)c1ccc(-n2c(-c3ccccc3)c[n+]3c2CCc2ccccc2-3)cc1,inactive
22,CC(C)CNC(=S)NC(=O)c1ccc(F)cc1,active: 35.5 µM

# Quoted from the listing.
# Entry for CCC1CCc2c(sc(N)c2C(N)=O)C1 (stereo not given) under Potency: inconclusive: 39.8 µM [inhibitor, partial curve, poor fit]
# Entry for N[C@H](C(=O)O)[C@@H]1[C@@H](C(=O)O)C1(F)F under Potency: inconclusive: 0.794 µM [inhibitor, full curve, poor fit]

# The listing continues.

row,SMILES,Potency
1,O=C(CCCCN1CCC(c2ccccc2)C1)c1ccccc1 (stereo not given),"inconclusive: 0.562 µM [inhibitor, full curve, poor fit]"
2,Cc1ccc(C(=O)N(C)Cc2ccccc2C(F)(F)F)cc1,inactive
3,Cn1c(SCCOc2cccc(Cl)c2)nnc1-c1ccncc1,"inconclusive: 0.282 µM [inhibitor, full curve, poor fit]"
4,O=C(NCCCN1CCN(c2ccccc2F)CC1)c1ccc2nc(N3CCCCC3)sc2c1,"inconclusive: 56.2 µM [inhibitor, partial curve, poor fit]"
5,NC(=S)N1CCCc2ccccc21,"inconclusive: 100 µM [inhibitor, single point]"
6,CSc1ccc(CN2CCC(C)(Oc3ccc4ccccc4c3)C2)cc1 (stereo not given),"inconclusive: 100 µM [inhibitor, single point]"
7,CCN(CC)C(=O)c1cc2c(=O)c3cc(F)ccc3oc2nc1C,"inconclusive: 31.6 µM [inhibitor, full curve, poor fit]"
8,COc1cc2ccccc2cc1C(=O)N(CCN(C)C)c1nc2c(F)cc(F)cc2s1,"inconclusive: 70.8 µM [inhibitor, single point]"
9,CCc1ccc(NC(=O)CSc2nc3ccsc3c(=O)[nH]2)cc1,"inconclusive: 50.1 µM [inhibitor, partial curve, poor fit]"
10,Cc1onc(-c2c(F)cccc2Cl)c1C(=O)Nc1nnc(C(F)(F)F)s1,"inconclusive: 44.7 µM [inhibitor, partial curve, poor fit]"
11,COC(=O)c1c(NC(=O)COC(=O)c2ccc(O)cc2)sc2c1CCCCC2,inactive
12,CC(=O)c1csc(NC(=O)CN(C)S(=O)(=O)c2ccc(F)cc2)n1,"inconclusive: 14.1 µM [inhibitor, full curve, poor fit]"
13,Cc1cc2c(cc1C)CSC(c1ccccc1OC(=O)c1cccc3ccccc13)SC2,inactive
14,CC(=O)C1=C(C)NC(SCC(=O)c2ccc(F)cc2)=C(C#N)C1CC(C)C (stereo not given),"inconclusive: 20 µM [inhibitor, partial curve]"
15,CC1(C)CC(C)(O)N(CCc2ccccc2)C(=S)N1 (stereo not given),"inconclusive: 50.1 µM [inhibitor, partial curve, poor fit]"
16,CCN(CC)CCN1C(=O)C(=O)/C(=C(/O)c2ccc(S(=O)(=O)N3CCOCC3)cc2)C1c1ccc(C(C)C)cc1 (stereo not given),"inconclusive: 70.8 µM [inhibitor, partial curve, poor fit]"
17,Cc1cc(C)cc(C(=O)C(C#N)C(=O)NC2CCCCC2)c1 (stereo not given),"inconclusive: 3.98 µM [inhibitor, full curve, poor fit]"
18,Cc1nn(CCC(=O)Nc2ccc(Cl)cc2F)c(=O)c(C#N)c1C,"inconclusive: 0.316 µM [inhibitor, full curve, poor fit]"
19,Cc1cc(C)n(Cc2n[nH]c(=S)n2Cc2ccccc2)n1,"inconclusive: 70.8 µM [inhibitor, partial curve, poor fit]"
20,CCCCCC(=O)N1C[C@H](n2cc(COC(=O)c3ccccc3)nn2)[C@@H](O)C[C@@H]1c1ccc(C)cc1,active: 39.8 µM
21,CC(=O)C(Sc1ccc([N+](=O)[O-])cc1)C(C)=O,"inconclusive: 0.891 µM [inhibitor, full curve]"
22,Cc1ccc(O)c(NC(=O)c2onc(C)c2Cl)c1,inactive

row,SMILES,Potency
1,O=C(NCc1cc(F)cc(F)c1)c1nnn2c1COC(c1ccc(Br)cc1)C2 (stereo not given),"inconclusive: 2.24 µM [inhibitor, full curve]"
2,CC(=O)Nc1cccc(OCC(=O)Nc2ccccc2)c1,inactive
3,O=C(c1nccc2ccccc12)N1CCC2(CC1)NCCc1c2[nH]c2ccccc12,"inconclusive: 5.01 µM [inhibitor, full curve, poor fit]"
4,CCCN(C/C=C/I)C1CCc2cccc(O)c2C1 (stereo not given),"inconclusive: 1.26 µM [inhibitor, full curve, poor fit]"
5,COc1cccc(Cc2nc3ccccc3nc2SCC(=O)Nc2cccc(OC)c2)c1,inactive
6,O=C(CSc1ncnc2nc[nH]c12)Nc1ccccc1,"inconclusive: 31.6 µM [inhibitor, partial curve, poor fit]"
7,COc1ccc(C(CNC(=O)COc2ccc(Cl)cc2C)N2CCCCC2)cc1 (stereo not given),inactive
8,O=c1[nH]c(SCc2ccc([N+](=O)[O-])cc2)nc2c1CCCC2,"inconclusive: 50.1 µM [inhibitor, partial curve, poor fit]"
9,Cc1cccc(C)c1Nc1c(-c2ccccc2F)nc2ccccn12,inactive
10,COc1cccc(OC)c1C(=O)NC(=S)Nc1ccc(S(=O)(=O)Nc2nccs2)cc1,"inconclusive: 39.8 µM [inhibitor, partial curve]"
11,CCCC(C)C(=O)Nc1nc(C)c(-c2csc(Nc3cc(OC)ccc3OC)n2)s1 (stereo not given),"inconclusive: 79.4 µM [inhibitor, partial curve, poor fit]"
12,O=C(Nc1ccc(F)cc1)N1CC2CC(C1)[C@H]1CCCC(=O)N1C2 (stereo not given in full),inactive
13,CC(=O)c1ccc(OCc2c(-c3ccccc3)nnn2CC(=O)NS(=O)(=O)c2ccc(C)cc2)cc1,"inconclusive: 79.4 µM [inhibitor, partial curve, poor fit]"
14,OCCN1CCN(c2ccc(-c3nc(-c4cccc(C(F)(F)F)c4)no3)cn2)CC1,inactive
15,Cc1ccc(C2CC(=O)CC(=O)C2)cc1,"inconclusive: 44.7 µM [inhibitor, partial curve, poor fit]"
16,c1cc2c(cc1C1CCCCC1)c1c3n2CCN[C@H]3CCC1,"inconclusive: 44.7 µM [inhibitor, partial curve, poor fit]"
17,CN(C)C(=O)c1ccc(-c2nc(N3CCOCC3)c3ccccc3n2)cc1,active: 44.7 µM
18,O=C(CN1CCN(Cc2ccccc2)CC1)N/N=C/c1cccs1,"inconclusive: 126 µM [inhibitor, single point]"
19,Cc1c2cnn(CC(=O)Nc3c(F)c(F)cc(F)c3F)c(=O)c2c(C)n1Cc1ccc(F)cc1,inactive
20,COc1ccccc1OC(C)C(=O)N1CCC(Cc2ccccc2)CC1 (stereo not given),"inconclusive: 50.1 µM [inhibitor, partial curve, poor fit]"
21,Cc1cc(CNC(=O)c2cc(C)nc3ccccc23)c2ccccc2n1,"inconclusive: 44.7 µM [inhibitor, partial curve, poor fit]"
